Percent effect of library compounds

Sequences of proteins named here, by UniProt entry; tags and fusion partners are left off. Residues count along the entry.
UniProt P9WPC5, whole entry: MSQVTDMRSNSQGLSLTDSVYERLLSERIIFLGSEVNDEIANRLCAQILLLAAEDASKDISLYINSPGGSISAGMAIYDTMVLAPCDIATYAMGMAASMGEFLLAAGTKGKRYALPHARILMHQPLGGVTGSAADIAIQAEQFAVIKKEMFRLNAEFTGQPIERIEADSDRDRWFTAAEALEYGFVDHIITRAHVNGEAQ
UniProt P9WPC3, whole entry partner: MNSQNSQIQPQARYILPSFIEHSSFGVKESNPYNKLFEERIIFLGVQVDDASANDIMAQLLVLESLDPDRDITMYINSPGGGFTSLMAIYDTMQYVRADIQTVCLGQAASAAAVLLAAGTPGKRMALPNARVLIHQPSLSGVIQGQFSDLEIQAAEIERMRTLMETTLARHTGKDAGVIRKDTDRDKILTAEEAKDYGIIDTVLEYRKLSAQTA
UniProt Q4DA54, 1-478: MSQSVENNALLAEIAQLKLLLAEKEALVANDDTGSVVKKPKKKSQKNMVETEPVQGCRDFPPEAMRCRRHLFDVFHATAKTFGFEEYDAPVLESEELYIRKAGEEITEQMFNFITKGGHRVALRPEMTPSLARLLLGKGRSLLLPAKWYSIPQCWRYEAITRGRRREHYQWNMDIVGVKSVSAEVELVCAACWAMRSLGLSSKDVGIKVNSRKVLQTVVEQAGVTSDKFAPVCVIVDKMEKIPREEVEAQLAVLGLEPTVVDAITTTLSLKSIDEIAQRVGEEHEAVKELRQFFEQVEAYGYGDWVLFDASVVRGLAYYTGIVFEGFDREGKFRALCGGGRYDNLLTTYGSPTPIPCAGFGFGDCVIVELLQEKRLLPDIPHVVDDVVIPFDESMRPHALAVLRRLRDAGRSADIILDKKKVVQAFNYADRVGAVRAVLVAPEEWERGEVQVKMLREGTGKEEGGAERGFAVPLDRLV
UniProt P9WNZ1, whole entry: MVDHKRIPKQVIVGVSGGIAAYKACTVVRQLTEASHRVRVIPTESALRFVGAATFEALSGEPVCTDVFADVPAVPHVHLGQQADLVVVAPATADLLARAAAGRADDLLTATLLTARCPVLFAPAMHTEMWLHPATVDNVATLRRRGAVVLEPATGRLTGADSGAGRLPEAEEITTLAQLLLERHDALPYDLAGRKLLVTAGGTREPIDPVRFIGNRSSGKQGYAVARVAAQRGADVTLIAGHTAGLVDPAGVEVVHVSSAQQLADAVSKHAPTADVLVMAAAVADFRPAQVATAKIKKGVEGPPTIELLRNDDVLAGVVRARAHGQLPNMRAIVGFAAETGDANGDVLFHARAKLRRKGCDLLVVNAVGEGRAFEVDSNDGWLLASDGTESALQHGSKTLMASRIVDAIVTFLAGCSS

The values are deposited in ChEMBL (CHEMBL3988442, “University of Dundee, Small-Polar-MMV Screening Library” (2021)).

ClpP1P2: 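Protease assay of ClpP1P2, read by the AMC dye that it sets free. Target: ClpP1P2, Mycobacterium tuberculosis (UniProt P9WPC5 and UniProt P9WPC3). Tested at 50 µM. Direction is inferred from only a few compounds that gave an IC50; most scored high, so higher reads as stronger inhibition. Most other retested compounds had strongly negative values. Size under these conditions: about 69,000 compounds, about 10 of them at 50% or above in at least one test.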
Toxoplasma: 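Assay of Toxoplasma gondii numbers, read through their beta-galactosidase reporter with a colour substrate. Compounds at 10 µM. The record gives no direction; the compounds picked for IC50 retests had high values, so higher reads as fewer parasites. About 67,000 compounds were tested under these conditions; 0.38% (about 260) showed 50% or more at least once.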
Leishmania in macrophages: 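Cell assay of Leishmania donovani living inside macrophages; the read-out is not stated. Tested at 30 µM. Higher reads as stronger inhibition (inferred: compounds with an IC50 in retests scored well above the rest). Size under these conditions: about 69,000 compounds, about 1,000 of them at 50% or above in at least one test.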
TcHisRS: 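Enzyme assay of histidyl-tRNA synthetase; the read-out is not stated. Target: Histidine-tRNA ligase, Trypanosoma cruzi CL Brener (UniProt Q4DA54). Compounds at 30 µM. Higher reads as stronger inhibition (inferred: compounds with an IC50 in retests scored well above the rest). Size under these conditions: about 69,000 compounds, about 31 of them at 50% or above in at least one test.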
CoaBC: 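Enzyme assay of CoaBC with a phosphate dye (Biomol Green) read at 650 nm. Target: Coenzyme A biosynthesis protein CoaBC, Mycobacterium tuberculosis (UniProt P9WNZ1). Concentration: 30 µM. Higher reads as stronger inhibition, judged from the few compounds that gave an IC50. Most strong results did not repeat in a second test. Of about 67,000 compounds tested this way, about 40 (0.06%) reached 50% or more in at least one test.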

Results are given as percent effect. The controls that fix the scale are not given in the record; negative values are as filed. The compounds are a random part of those screened. Two or more numbers in one place are separate tests of the same structure; such repeats can differ widely. A dash means the value is not listed here; it may have been measured.

| SMILES | ClpP1P2 | Toxoplasma | Leishmania in macrophages | TcHisRS | CoaBC |
|---|---|---|---|---|---|
| `CC(=O)c1cc(CN2C[C@@H](CN3CCC(O)CC3)[C@@H](CO)C2)n(C)c1` | 6.38% | -5.365% | 11.02% | 0% | - |
| `Cn1nc(C2CCCN(Cc3cc(F)cc(F)c3)C2)c2nccnc21` (centres unmarked) | -7.604% | - | - | -2.128% | -0.2451% |
| `O=S(=O)(C1CC1)N1C[C@H](Oc2ccccn2)[C@H]2OCCC[C@H]21` | 1.601% | - | - | 4.301% | -8.632% |
| `Cc1cc(C(=O)N2C[C@@H]3CCCO[C@@H]3[C@H](N3CCOCC3)C2)c(C)[nH]1` | -4.972% | - | - | 3.226% | -0.2105% |
| `O=C(c1ccncc1F)N1C[C@@H]2OCCN(CC3CC3)[C@@H]2C1` | -4.982% | - | - | 2.454% | - |
| `CC(NC(=O)N(C)Cc1ccc2c(c1)OCCO2)c1nncn1C` (centres unmarked) | -9.643% | 17.55% | 5.888% | 2.116% | 7.692% |
| `[H][C@@]12CCN(Cc3cccc(C)n3)C[C@]1(C(=O)N1CCOCC1)CCO2` | - | 0.1204% | 25.46% | - | - |
| `CCCn1nc2c(cc1=O)CN(Cc1cc(C)on1)CC2` | -1.899% | 1.612% | -12.32% | 2.674% | 5.59% |
| `Cc1noc(OCCOc2cccc(C#N)c2)n1` | -0.5975% | -2.594% | 16.71% | 7.143% | -0.9804% |
| `CC(=O)c1cc(CN2C[C@H]3CC[C@@H]2CN(S(=O)(=O)N(C)C)C3)cs1` | -9.247% | - | - | 0.813% | 9.283% |
| `CCN(C)c1ncnc2c1CCN(Cc1ccoc1)CC2` | -2.688% | -8.552% | 26.35% | -0.5464% | 6.564% |
| `CC(C(=O)N1CCCCC1)N1CCN(c2ncc(Cl)cn2)CC1` (centres unmarked) | -8.276% | 4.475% | 6.463% | 4.972% | -1.656% |
| `CC(C)(CO)CNC(=O)c1cc(-c2cc[nH]n2)n2ccccc12.O=C(O)C(F)(F)F` | - | 5.587% | 5.107% | - | - |
| `Cc1cnccc1CN(C)C(=O)c1ccc(Cn2cnnn2)cc1` | 8.807% | -15.32% | -16.12% | 0.4878% | -1.882% |
| `Cc1ccc(CN2CCc3c(CN(C)C)n[nH]c3C2)s1.O=C(O)C(F)(F)F.O=C(O)C(F)(F)F` | - | 12.79% | 15.51% | - | - |
| `COc1c(C)cnc(CN2CCC(N(C)C(=O)C3CC3)CC2)c1C` | -8.247% | -5.271% | 39.49% | 2.286% | 1.434% |
| `CN(CC1(O)CCN(c2ccnc3ccncc23)CC1)C(=O)CCN` | -14.05% | -0.1415% | 19.75% | 7.143% | 1.826% |
| `O=C(O)C(F)(F)F.O=C(O)C(F)(F)F.[H][C@]12CO[C@H](CNC(=O)c3cccnc3)[C@@]1([H])CCN(Cc1ccco1)C2` | - | -10.27% | 21.08% | - | - |
| `Cc1ccc(NS(=O)(=O)c2ccc(C#N)cc2)c(CN(C)C)c1` | -6.171% | 10.39% | 6.985% | 11.35% | 1.818% |
| `[H][C@@]12CCN(C(=O)c3ccsc3)C[C@]1(c1nc(C)no1)CCO2` | - | -0.3695% | 18.55% | - | - |
| `CN1CCC(CN(C)C(=O)c2cc(C3CCCN3C)ccn2)CC1` (centres unmarked) | -13.82% | -51.39% | 19.43% | 1.498% | 2.602% |
| `O=C(O)C(F)(F)F.[H][C@@]12CCN(Cc3ccc4c(c3)OCO4)C[C@]1(C(=O)NC1CC1)CCO2` | - | 8.19% | 11.36% | - | - |
| `Fc1ccc(OCC2CCCO2)c(NCc2cn3cccnc3n2)c1` (centres unmarked) | -11.96% | -1.138% | 9.007% | 2.956% | -1.282% |
| `CC(C)C(=O)N1CCC(n2nc(-c3ccco3)ccc2=O)CC1` | -12.51% | 20.58% | -7.221% | 2.128% | 0.4902% |
| `O=S(=O)(c1ccc(F)cc1F)N1CCCCC1c1nnc2n1CCCC2` (centres unmarked) | -17.37% | 7.96% | 6.913% & -12.97% | 1.205% | 4.58% |
| `Cc1nccn1CCC1CCNCC1` | 13.57% | - | - | 5.303% | 1.051% |
| `CSCCC(=O)N1CCC(c2nccn2Cc2cscn2)CC1` | -16.02% | -33.82% | 9.94% | -1.508% | -1.568% |
| `O=C(NC[C@@]1(COc2cnccn2)C[C@@H](O)[C@@H](O)C1)C1CC1` | -12.12% | - | - | 8.458% | -8.448% |
| `O=C(Cn1cccnc1=O)NC(Cc1ccsc1)c1ccccn1` (centres unmarked) | 2.334% | 14.03% | -9.554% | 4.865% | 6.944% |
| `CCCN1CCC(NCc2ccncc2)CC1` | 15.08% | -2.714% | -7.602% | 1.087% | 6.25% |
| `Cc1cccc(N(CC(=O)N2CCCCC2)C(=O)C2CCCO2)c1` (centres unmarked) | -4.19% | -43.7% | 15.12% | 3.191% | 0.2049% |
| `CCc1ccc(CC)c(NCc2cnc(N3CCOCC3)nc2)c1` | -1.066% | -8.339% | 22.28% | 2.646% | 4.97% |
| `Cc1ncc2c(n1)CN(Cc1nc(Cc3ccccc3)no1)CC2` | -65.74% | 15.28% | 17.09% | 23.62% | 6.102% |
| `CC1=C(C#N)C(=O)NC(=O)/C1=C\c1c(C)nn(-c2ccccc2)c1O` | -0.4489% | -7.404% | 23.06% | 5.78% | -1.35% |
| `c1ccc(CN2Cc3nccn3CC(Cn3cccn3)C2)nc1` (centres unmarked) | -5.155% | - | - | 9.945% | 0.9901% |
| `COCCN1C[C@H]2[C@@H](C1)N(C(=O)c1cccs1)CC[C@H]2OC` | -0.02283% | - | - | -1.639% | 2.96% |
| `CC(CN1CCN(C)CC1)NC(=O)c1cc(Cl)c2c(c1)OCO2` (centres unmarked) | -3.041% | -9.712% | -9.119% | -1.626% | -20.25% |
| `CC(C)(C)C(=O)N1CC[C@H]2NC(=O)N(c3ccc(F)cc3)C(=O)[C@H]21` | 2.573% | - | - | 5.941% | -0.2257% |
| `Cc1occc1C(=O)N1CCO[C@H]2[C@H](Oc3cccnc3)CC[C@@H]21` | 9.381% | - | - | 4.082% | -1.112% |
| `CCC(=O)Nc1cccc(OCC(=O)N(C)Cc2ccon2)c1` | 4.297% | 3.285% | 26.9% | 4.712% | 5.556% |
| `CN1Cc2ccccc2CC2(CCN(c3ncc(F)cn3)CC2)C1=O` | -1.055% | 0.6915% | 19.75% | 2.454% | - |
| `O=C(c1cncs1)N1CCOCC(Cc2ccccn2)C1` (centres unmarked) | -6.404% | -13.05% | 0.616% | 8.812% | -2.392% |
| `CCc1cnc(C)nc1N1CCN(Cc2ccc(-c3cc[nH]n3)o2)CC1` | -0.6125% | -19.83% | 20.78% | 4.545% | -5.782% |
| `Cc1nnc(CN(C)CCOc2cccc(Cl)c2)o1` | 1.8% | 1.321% | -1.187% | 4.202% | -2.016% |
| `c1cn2c(n1)CN(C1CCOCC1)CC(CN1CCCC1)C2` (centres unmarked) | 11.81% | - | - | 2.151% | -40.21% |
| `Cc1cc2nc(C3CCCCC3)c(-c3ccnc(NCCO)n3)cn2n1` | -0.1242% | 12.7% | 13.24% & 1.641% | 2.26% | 2.771% |
| `CCN1CCCC1CNC(=O)Cc1c(C)n[nH]c1-c1ccc(OC)cc1` (centres unmarked) | -5.326% | -8.506% | 11.15% | 4.124% | -5.425% |
| `N#Cc1ccc(CN2CC3(CCCCN3c3cccnc3)CC2=O)cc1.O=C(O)C(F)(F)F` (centres unmarked) | - | 5.795% | 8.774% & 12.55% | - | - |
| `CN(Cc1ccsc1)C(=O)CN1CCOC(Cn2cncn2)C1` (centres unmarked) | -35.56% | 7.646% | 5.217% | 3.704% | -0.5362% |
| `c1ccc2sc(N3CCC4(CCCN4Cc4ncc[nH]4)CC3)nc2c1` | -9.333% | -26.88% | -2.071% | 7.328% | 3.422% |
| `[H][C@@]12C[C@H](c3nc(C)no3)CN(S(=O)(=O)CCC)[C@]1([H])CCO2` | - | -22.09% | -2.162% | - | - |
| `[H][C@@]12COC[C@]1(CNS(C)(=O)=O)CN(C(=O)C1CCCCC1)C2` | - | 3.497% | 5.616% | - | - |
| `Cc1nc(CC(=O)N2CCN(Cc3ccc(C#N)cc3)CC2)cs1` | -18.12% | 2.132% | 12.25% | 0% | 15.37% |
| `O=C(O)C(F)(F)F.O=C(O)C(F)(F)F.O=C(O)c1cc2c(nc1-c1ccoc1)CCN(CC1CCOC1)CC2` (centres unmarked) | - | -23.58% | 40.68% | - | - |
| `CN(C)C(=O)CN1C[C@H]2CCN(C(=O)c3ccncc3)CC[C@H]2S1(=O)=O` | -1.897% | - | - | 1.075% | -6.105% |
| `CNC(=O)c1cccc(C2CNCCN2C(=O)C2CCNCC2)c1` (centres unmarked) | 7.16% | 4.784% | 14.31% & 9.796% | 10% | 0.2421% |
| `O=C(Nc1ccnc2ccnn12)c1ccc(N2CCC(O)CC2)cc1` | 6.835% | 16.05% | 35.19% | 7.792% | - |
| `Cc1noc(C)c1CN1Cc2nccn2CC(CN2CCOCC2)C1` (centres unmarked) | 6.123% | - | - | 10.92% | 3.043% |

The first 4 entries again:

{"smiles": "CC(=O)c1cc(CN2C[C@@H](CN3CCC(O)CC3)[C@@H](CO)C2)n(C)c1", "ClpP1P2": 6.38, "Toxoplasma": -5.365, "Leishmania in macrophages": 11.02, "TcHisRS": 0}
{"smiles": "Cn1nc(C2CCCN(Cc3cc(F)cc(F)c3)C2)c2nccnc21", "stereo": "centres unmarked", "ClpP1P2": -7.604, "TcHisRS": -2.128, "CoaBC": -0.2451}
{"smiles": "O=S(=O)(C1CC1)N1C[C@H](Oc2ccccn2)[C@H]2OCCC[C@H]21", "ClpP1P2": 1.601, "TcHisRS": 4.301, "CoaBC": -8.632}
{"smiles": "Cc1cc(C(=O)N2C[C@@H]3CCCO[C@@H]3[C@H](N3CCOCC3)C2)c(C)[nH]1", "ClpP1P2": -4.972, "TcHisRS": 3.226, "CoaBC": -0.2105}